According to US20030162834A1, “Natural physiologically active material effective on fish diseases and fish food containing the material” (priority 1998, published 2003):
Some entries share one result that the patent states for a list of compounds.

Tested on: Cryptocaryon irritans
Test: Trial 1: in vitro immersion of theronts in fatty acid seawater solutions
Assay type: cell-based
Details: 0.5 mM in seawater, 20 degrees centigrade
Protocol: For Cryptocaryon irritans, fatty acids having carbon number C2, C4 and C6-C10 were each dissolved in seawater at 0.5 mM concentration, and theronts of Cryptocaryon irritans were immersed in the seawater solutions. After 1 hour from the start of immersion, the efficacy of the fatty acids was investigated by counting the number of dead theronts. More than 200 individuals of parasites were transferred to each group.
For any of the groups, the trial was made under condition of 20 degrees centigrade.

## CCCCCC(=O)O [C6, caproic acid]
  emergence of dead theronts: dead individual emerged
